# PubChem BioAssay AID743454, Peter MacCallum Cancer Centre – 2014
# Screen: 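Genes whose loss kills vorinostat-resistant colon cancer cells under vorinostat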 (primary screen)
# System: human HCT116-VR colon cancer cells, selected for vorinostat resistance
# Reagent: siRNA pool against human genes, 40 nM siRNA pool
# Time to read-out: vorinostat for 24 h, read-out about 72 h after transfection
# Conditions: vorinostat at 2.5 µM final
# Read-out: 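Two measures, CellTiter-Fluor viability and luminescent caspase 3/7 activity, each as fold change against same-plate mock wells, mean of duplicates, then screen-wide robust z-score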
# Reading the numbers: viability robust z-score: higher = more viable cells than screen typical; caspase robust z-score: higher = more caspase 3/7 activity than screen typical
# Call rule: 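Hits are knock-downs in viability class RV1/RV2 or caspase class CA1/CA2, excluding ones that killed cells in the no-drug cell-count arm; hits then retested with single siRNAs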
# Shown is one part, drawn at random, of about 18,000 deposited reagents. In the full data, 450 (2.5%) got an active call. 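Single biological run; no consistent viability z cut-off exists, so the class columns, not z-scores, define the calls.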 Unmarked entries are inactive. No sequences are given here.
gene knocked down,viability hit class,caspase hit class,viability robust z-score,caspase robust z-score
HEYL,no change,no change,1.87,-0.55
TTLL4,no change,no change,-0.34,-0.22
ZNF587,no change,no change,0.55,0.22
IL26,no change,no change,0.6,-0.64
C18orf54,no change,no change,0.58,-0.83
MS4A6E,no change,no change,-1,2.94
IFITM3,no change,no change,0.37,0.38
PSORS1C2,no change,no change,-1.77,-0.52
CCNB2,no change,no change,0.08,0.24
ENTPD7,no change,no change,0.36,-0.23
MTCL1,no change,no change,1.26,0.65
MALSU1,no change,no change,0.4,-0.74
TRDMT1,no change,no change,-0.08,-0.98
TAL2,no change,no change,-0.04,-0.28
AP4E1,no change,no change,0.78,-0.76
POLR1G,no change,no change,-0.72,3.99
SCN1B,no change,no change,-1.02,1.62
SEMA4B,no change,no change,0.56,2.38
FBLN5,no change,no change,0,1.06
SLC7A10,no change,no change,0.7,0
ZFP36,no change,no change,-0.64,-0.5
APOA2,no change,no change,-1.12,3.56
DOCK3,no change,no change,0.22,0.15
PRR23B,no change,no change,0.42,-0.9
OR4N2,no change,no change,-0.5,-0.92

Entries above whose target name begins with M or m:
gene knocked down,viability hit class,caspase hit class,viability robust z-score,caspase robust z-score
MS4A6E,no change,no change,-1,2.94
MTCL1,no change,no change,1.26,0.65
MALSU1,no change,no change,0.4,-0.74

Further reagents follow:
gene knocked down,viability hit class,caspase hit class,viability robust z-score,caspase robust z-score
CRYGS,no change,no change,1.56,-0.24
KLK13,no change,no change,0.06,2.11
MIER3,no change,no change,-0.14,-0.88
VPS8,no change,no change,0.56,0.12
RBM25,no change,no change,-1.26,-1.23
PXMP2,no change,no change,0.3,0.42
NDUFAF7,no change,no change,-1.18,-1.12
SLC17A9,no change,no change,-0.21,-0.36
TBL1Y,no change,no change,-0.9,-0.03
NME4,no change,no change,1.72,0.04
ITGB2,no change,no change,-0.72,1.05
SNX9,no change,no change,-1.77,0.55
PRKCA,no change,no change,0.5,2.66
ARHGAP32,no change,no change,-1.25,-0.52
SMC1A,no change,no change,-0.14,-0.33
NDUFA10,no change,no change,-1.06,-0.96
SLC38A2,no change,no change,0.46,0.06
ANKRD13B,no change,no change,0.41,0.1
KIAA1191,RV2 (reduced viability) (active),no change,-2.93,-0.42
PSEN1,no change,no change,0.16,-1.05
CYP2A6,no change,no change,1.82,-0.05
PRDM13,no change,no change,-2.15,2.46
NRIP2,no change (active),CA1 (caspase activation),-1.29,7.5
ZAR1,no change,no change,0.32,0.24
RRAGB,no change,no change,0.96,-0.95
TREH,no change,no change,-1.14,1.9
SLITRK5,no change,no change,1.07,-0.89
JAK3,no change,no change,0.11,1.23
TIMM17B,no change,no change,-0.09,2.42
UBB,no change,no change,-4.74,-1.04
CERT1,no change,no change,-0.6,1.86
RBFOX2,no change,no change,-3.48,1.08
